Source: PubChem BioAssay AID2551 (National Center for Advancing Translational Sciences (NCATS), 2010)
“And” between values parts separate entries of the source, which are not always exact repeats. Equal values may be shown once. The whole screen tested about 310,000 compounds, of which about 17,000 (5.5%) were called active. Inconclusive means that the source gave no clear call. Such entries were picked first, then a sample of the others. The call rests on the fitted dose curve; in most records, active means well fitted inhibition curve with a large enough effect; inconclusive means small, poorly fitted or top-dose-only effect, or effect the other way; inactive means no such curve, though single readings can be large or run the other way. Potencies of inconclusive entries are doubtful fits and often do not repeat.

By UniProt entry, the sequences of proteins in these tests, tags left out. Where a name states a change or a piece, a line headed by the entry shows the natural chain unless it says otherwise.
UniProt P51450: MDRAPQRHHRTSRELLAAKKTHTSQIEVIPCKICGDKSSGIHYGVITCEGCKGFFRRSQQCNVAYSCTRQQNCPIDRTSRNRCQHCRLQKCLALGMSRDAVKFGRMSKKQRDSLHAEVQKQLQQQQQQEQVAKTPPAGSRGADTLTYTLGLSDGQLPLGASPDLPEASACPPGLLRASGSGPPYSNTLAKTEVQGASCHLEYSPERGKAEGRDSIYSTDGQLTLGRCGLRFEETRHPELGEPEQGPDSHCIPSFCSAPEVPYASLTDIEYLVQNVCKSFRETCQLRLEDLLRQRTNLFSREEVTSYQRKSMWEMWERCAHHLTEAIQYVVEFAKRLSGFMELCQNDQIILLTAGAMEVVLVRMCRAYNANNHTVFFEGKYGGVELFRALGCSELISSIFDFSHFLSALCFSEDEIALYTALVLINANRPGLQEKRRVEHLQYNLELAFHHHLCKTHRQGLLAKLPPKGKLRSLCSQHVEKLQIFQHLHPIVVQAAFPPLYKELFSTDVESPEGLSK

These compounds were tested against Nuclear receptor ROR-gamma (Mus musculus) (UniProt P51450) (assay: qHTS for inhibitors of ROR gamma transcriptional activity). Settings: Drosophila S2 Gal4-RORgamma UAS-luciferase reporter, 20 h; activity change, negative = inhibition: at 53.6 µM (top of the series).
Method in brief: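 Schneider cells (Drosophila), stable Gal4 DBD–ROR gamma + UAS-luc; 1 hr cmpd preincubation; Cu2+ induction 700 uM final; 20 hr ambient; luminescence.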
Further: nearly all actives have a fitted effect of over 60% in size.
On the % scale 0 is the no-effect control and ±100 the full control effect; potency means the concentration at half of the fitted maximal effect.

Row | SMILES | Potency | activity change, negative = inhibition
1 | CCCCn1nnnc1SCC(=O)Nc1sc2c(c1C#N)CCCC2 | inconclusive: 14.1 µM [activator, single point] | 
2 | Cc1cc(=O)oc(C)c1C(=O)N1CCN(C(c2ccccc2)c2ccccc2)CC1 | inconclusive: 15.8 µM [activator, partial curve] | 
3 | O=C(N/N=C/c1ccc([N+](=O)[O-])cc1)c1cccs1 | inconclusive: 1 µM [activator, partial curve, poor fit] | 
4 | Cc1[nH]n(-c2ccccc2)c(=O)c1N=Nc1c(Cl)cccc1Cl | active: 12.6 µM | 
5 | Clc1ccc2ccc3cccnc3c2n1 | active: 12.6 µM | 
6 | O/N=C/c1cn(-c2ccc(Cl)cc2)nn1 | inconclusive: 11.2 µM [activator, partial curve] | 
7 | O=C(Cn1cnc([N+](=O)[O-])n1)N/N=C/c1cc(Cl)ccc1O | active: 7.08 µM | 
8 | O=C(O)CCn1c2ccccc2c2nc3ccccc3nc21 | inconclusive: 22.4 µM [inhibitor, single point] | 
9 | O=S(=O)(Cc1ccccc1)c1nnnn1-c1ccccc1 | inconclusive: 12.6 µM [inhibitor, single point] | 
10 | COc1ccc(C(=O)NC(=S)N2CCN(C)CC2)cc1Br | active: 0.447 µM | 
11 | Cc1cc(S(=O)(=O)N2CCCC2)ccc1OCC(=O)N1CCOCC1 |  | inactive: -17.6% [at 0.365 µM]
12 | CCn1c(=N)n(CC(O)c2ccccc2)c2ccccc21 (stereo not given) | inconclusive: 15.8 µM [inhibitor, single point] | 
13 | N=c1n(CC(=O)c2ccc([N+](=O)[O-])cc2)c2ccccc2n1Cc1ccccc1 |  | inactive: -24.2%
14 | COc1ccc(-c2csc(/C(C#N)=C(\O)CSc3nccn3C)n2)cc1OC | inconclusive: 22.4 µM [inhibitor, single point] | 
15 | Cc1cc(NCCCn2ccnc2)n2nc(C)c(-c3ccc(Cl)cc3)c2n1 |  | inactive: 0.514%
16 | COCC(C)NC(=O)c1cc(-c2ccc(O)cc2)on1 (stereo not given) | inconclusive: 1.58 µM [activator, partial curve] | 
17 | O=C(CSc1cccc[n+]1[O-])Nc1ccccc1Oc1ccccc1 | active: 6.31 µM | 
18 | O=Cc1ccc(N2CCCCCC2)cc1 |  | inactive: 22.5%
19 | CCN1CCN(C(=O)C2CCCN(S(=O)(=O)c3cccc4nsnc34)C2)CC1 (stereo not given) |  | inactive: -1.44%
20 | O=S(=O)(c1ccc(Cl)cc1)c1snnc1-c1ccccc1 | inconclusive: 22.4 µM [inhibitor, single point] | 
21 | N#CC1=C(c2ccccc2)/C(=C/c2ccccc2)OC1=O | active: 3.55 µM | 
22 | O=S(=O)(Nc1nc(SCc2ccc(Cl)cc2)n[nH]1)c1ccc(F)cc1 | inconclusive: 5.01 µM [activator, partial curve] | 
23 | COc1ccc(-n2nc(C(=O)NCC(=O)NCc3cccc(F)c3)c3ccccc3c2=O)cc1Cl |  | inactive: 4.22%
24 | O=c1nc(-c2ccccc2)c2ccccc2[nH]1 |  | inactive: -15.5%
25 | Fc1ccc(NC(=S)Nc2cccc3ccccc23)cc1F | active: 11.2 µM | 

Row | SMILES | Potency | activity change, negative = inhibition
26 | Fc1cccc(NC(=S)Nc2ccc(Br)cc2)c1 | inconclusive: 15.8 µM [inhibitor, single point] | 
27 | CNC(=O)c1c(NC(=O)c2nc3ccccc3s2)sc2c1CCC2 | active: 7.08 µM | 
28 | Cc1ccc(C)n1NC(=O)c1ccccc1[N+](=O)[O-] |  | inactive: -18.7%
29 | COc1ccc(/C=N/NC(=S)NCC2CCCO2)cc1 (stereo not given) | active: 2.82 µM | 
30 | Cc1ccc(CN2C(=O)N/C(=C/c3cc(C)n(-c4ccccn4)c3C)C2=O)cc1 | inconclusive: 20 µM [activator, single point] | 
31 | COc1ccc(CC(=O)N/N=C(\C)c2cccs2)cc1 |  | inactive: -11.4%
32 | Cc1ccc(C(=O)Nc2cc(C)c(OCC(=O)N3CCOCC3)c(C)c2)cc1 | active: 14.1 µM | 
33 | COC(=O)c1c(C)oc2ccc(N(C(C)=O)S(=O)(=O)c3ccccc3)cc12 | inconclusive: 10 µM [activator, partial curve] | 
34 | CCC(=O)Nc1c(C)ccc2nsnc12 | inconclusive: 0.501 µM [inhibitor, single point] | 
35 | C=CCn1c(=O)c2ccccc2n2c(SCc3nnc(-c4ccccc4Br)o3)nnc12 |  | inactive: 17.3%
36 | CCN1CCCC1CN(Cc1cc2ccc(C)cc2[nH]c1=O)C(=S)Nc1ccc(OC)cc1 (stereo not given) |  | inactive: -7.14%
37 | O=c1cc(-c2ccccc2Cl)oc2c(NS(=O)(=O)c3cc(Cl)cc(Cl)c3O)ccc(O)c12 | inconclusive: 28.2 µM [activator, single point] and inconclusive: 8.91 µM [inhibitor, single point] | 
38 | CNC(=O)c1ccccc1Sc1ccccc1C#N | inconclusive: 35.5 µM [activator, single point] | 
39 | O=c1oc(/C=C/c2ccco2)nc2sc3c(c12)CCC3 | inconclusive: 5.62 µM [activator, partial curve, poor fit] | 
40 | CSC1=NS(=O)(=O)c2c(C)nn(C)c2S1 | inconclusive: 20 µM [inhibitor, single point] | 
41 | O=S(=O)(c1ccccc1)N1CCN(c2nnc(-c3ccccc3)c3ccccc23)CC1 |  | inactive: -0.405%
42 | Cc1ccc(S(=O)(=O)N2CCCCC2C)cc1[N+](=O)[O-] (stereo not given) | inconclusive: 31.6 µM [activator, single point] | 
43 | CCOc1ccc(NC(=O)Nc2cccn(Cc3ccccc3)c2=O)cc1 | inconclusive: 17.8 µM [activator, single point] | 
44 | Cc1cccc(-n2cc(-c3ccccc3)c3c(NN4CCOCC4)ncnc32)c1 | active: 6.31 µM | 
45 | COc1ccc(C2NC(=O)C(C#N)=C(S)N2c2cccc(C)c2)cc1OC (stereo not given) | inconclusive: 25.1 µM [inhibitor, single point] | 
46 | CCn1c(CN2CCN(C(=O)c3ccco3)CC2)nc2c1c(=O)n(C)c(=O)n2C | inconclusive: 4.47 µM [activator, full curve] | 
47 | Cc1ccc(-c2csc3ncnc(SCC(=O)NCc4ccc5c(c4)OCO5)c23)cc1 |  | inactive: 30.8%
48 | CCn1c(=O)c([N+](=O)[O-])c(N2CCN(Cc3ccc4c(c3)OCO4)CC2)c2ccccc21 | inconclusive: 17.8 µM [inhibitor, partial curve] | 
49 | COc1ccc2nc(C)cc(SCC(=O)N/N=C/c3cccc4ccccc34)c2c1 | active: 11.2 µM | 
50 | Cc1nc2cnc(Nc3ccccc3)nc2n(C)c1=O | inconclusive: 5.01 µM [activator, partial curve, poor fit] | 

20 compounds from above, arranged by length of the SMILES, rising:
Row | SMILES | Potency | activity change, negative = inhibition
34 | CCC(=O)Nc1c(C)ccc2nsnc12 | inconclusive: 0.501 µM [inhibitor, single point] | 
38 | CNC(=O)c1ccccc1Sc1ccccc1C#N | inconclusive: 35.5 µM [activator, single point] | 
26 | Fc1cccc(NC(=S)Nc2ccc(Br)cc2)c1 | inconclusive: 15.8 µM [inhibitor, single point] | 
50 | Cc1nc2cnc(Nc3ccccc3)nc2n(C)c1=O | inconclusive: 5.01 µM [activator, partial curve, poor fit] | 
29 | COc1ccc(/C=N/NC(=S)NCC2CCCO2)cc1 (stereo not given) | active: 2.82 µM | 
25 | Fc1ccc(NC(=S)Nc2cccc3ccccc23)cc1F | active: 11.2 µM | 
31 | COc1ccc(CC(=O)N/N=C(\C)c2cccs2)cc1 |  | inactive: -11.4%
39 | O=c1oc(/C=C/c2ccco2)nc2sc3c(c12)CCC3 | inconclusive: 5.62 µM [activator, partial curve, poor fit] | 
28 | Cc1ccc(C)n1NC(=O)c1ccccc1[N+](=O)[O-] |  | inactive: -18.7%
27 | CNC(=O)c1c(NC(=O)c2nc3ccccc3s2)sc2c1CCC2 | active: 7.08 µM | 
42 | Cc1ccc(S(=O)(=O)N2CCCCC2C)cc1[N+](=O)[O-] (stereo not given) | inconclusive: 31.6 µM [activator, single point] | 
45 | COc1ccc(C2NC(=O)C(C#N)=C(S)N2c2cccc(C)c2)cc1OC (stereo not given) | inconclusive: 25.1 µM [inhibitor, single point] | 
44 | Cc1cccc(-n2cc(-c3ccccc3)c3c(NN4CCOCC4)ncnc32)c1 | active: 6.31 µM | 
49 | COc1ccc2nc(C)cc(SCC(=O)N/N=C/c3cccc4ccccc34)c2c1 | active: 11.2 µM | 
47 | Cc1ccc(-c2csc3ncnc(SCC(=O)NCc4ccc5c(c4)OCO5)c23)cc1 |  | inactive: 30.8%
41 | O=S(=O)(c1ccccc1)N1CCN(c2nnc(-c3ccccc3)c3ccccc23)CC1 |  | inactive: -0.405%
30 | Cc1ccc(CN2C(=O)N/C(=C/c3cc(C)n(-c4ccccn4)c3C)C2=O)cc1 | inconclusive: 20 µM [activator, single point] | 
36 | CCN1CCCC1CN(Cc1cc2ccc(C)cc2[nH]c1=O)C(=S)Nc1ccc(OC)cc1 (stereo not given) |  | inactive: -7.14%
37 | O=c1cc(-c2ccccc2Cl)oc2c(NS(=O)(=O)c3cc(Cl)cc(Cl)c3O)ccc(O)c12 | inconclusive: 28.2 µM [activator, single point] and inconclusive: 8.91 µM [inhibitor, single point] | 
48 | CCn1c(=O)c([N+](=O)[O-])c(N2CCN(Cc3ccc4c(c3)OCO4)CC2)c2ccccc21 | inconclusive: 17.8 µM [inhibitor, partial curve] | 

Compounds 49–50 from above:
Row | SMILES | Potency | activity change, negative = inhibition
49 | COc1ccc2nc(C)cc(SCC(=O)N/N=C/c3cccc4ccccc34)c2c1 | active: 11.2 µM | 
50 | Cc1nc2cnc(Nc3ccccc3)nc2n(C)c1=O | inconclusive: 5.01 µM [activator, partial curve, poor fit] | 

The list goes on.

Row | SMILES | Potency | activity change, negative = inhibition
51 | COc1cccc(N2CCN(C(=S)Nc3ccc(F)cc3)CC2)c1 |  | inactive: -40.7%
52 | Cc1nc2cc(-c3ccccc3)nn2c(C)c1CCC(=O)NCc1ccco1 |  | inactive: 32.7%
53 | CC(C)c1ccc(C(=O)NCCCN2CCN(CCCNC(=O)c3ccc(C(C)C)cc3)CC2)cc1 | inconclusive: 35.5 µM [inhibitor, single point] | 
54 | OC(CN1CCN(c2ccccc2)CC1)c1ccc2c(c1)CCN2 (stereo not given) | inconclusive: 0.501 µM [activator, full curve, poor fit] | 
55 | Cc1cccc(NC(=S)NC(C)C(c2ccccc2)N2CCN(C)CC2)c1C (stereo not given) | active: 11.2 µM | 
56 | CC(=O)Nc1ccccc1C(=O)C(=O)Nc1ccc(C)c(C)c1 | inconclusive: 11.2 µM [activator, single point] | 
57 | COc1cc(NC(=O)CCc2nnc3ccc(N4CCC5(CC4)OCCO5)nn23)cc(OC)c1 |  | inactive: -20.1%
58 | CCCCCOc1ccc(C(=O)NCC2(c3ccccc3)CCOCC2)cc1 | inconclusive: 12.6 µM [inhibitor, single point] | 
59 | O=C(NCCCc1ccccc1)c1ccccc1O | inconclusive: 0.251 µM [activator, single point] | 
60 | CCOC(=O)Cc1csc(NC(=O)CN2CCN(CC)CC2)n1 | inconclusive: 22.4 µM [activator, single point] | 
61 | Cc1sc2ncnc(SCC(=O)c3cccs3)c2c1C | inconclusive: 22.4 µM [inhibitor, single point] | 
62 | Cc1nnsc1C(=O)N1CCCC(N2CCN(c3cccc(C(F)(F)F)c3)CC2)C1 (stereo not given) | inconclusive: 31.6 µM [activator, single point] | 
63 | CCO[C@H]1OC(C(=O)NCc2ccccc2)=C[C@@H](c2ccc(Br)cc2)[C@@H]1CCCO | inconclusive: 31.6 µM [activator, single point] | 
64 | Cc1cccc(/C=N/NC(=O)Cn2nccc2C)n1 | inconclusive: 20 µM [inhibitor, single point] | 
65 | O=C(NC(=S)Nc1ccc(Br)cn1)c1cncc(Br)c1 | active: 0.501 µM | 
66 | CCCCn1c(SCC(=O)N2CCc3ccccc32)nnc1-c1ccncc1 | inconclusive: 10 µM [activator, partial curve] | 
67 | CCN(CCNC(=O)C1CCCN(S(=O)(=O)CC)C1)c1ccccc1 (stereo not given) | inconclusive: 35.5 µM [activator, single point] | 
68 | CCCN(C(=O)CSc1nc2ccccc2n1CC)C1CCS(=O)(=O)C1 (stereo not given) |  | inactive: 27.7%
69 | CC1CN(C2CCN(S(=O)(=O)c3ccccc3)CC2)CC(C)O1 (stereo not given) | inconclusive: 5.62 µM [activator, single point] | 
70 | O=C(Nc1cc(C(F)(F)F)ccc1N1CCOCC1)c1ccccc1F |  | inactive: 0.565%
71 | O=C(Nc1nc(-c2cccnc2)cs1)c1ccc([N+](=O)[O-])cc1 |  | inactive: 8.73%
72 | COc1ccc(-c2nnc(SCc3nnc(-c4ccccc4)o3)n2-c2ccccc2)cc1 |  | inactive: -1.01%
73 | CNC(=S)NNC(=O)c1sccc1OCc1cccc(C(F)(F)F)c1 | inconclusive: 3.98 µM [inhibitor, full curve, poor fit] | 
74 | Cc1ccc(SCCC(=O)NC(C)C)cc1 | inconclusive: 0.0158 µM [inhibitor, full curve, poor fit] | 
75 | O=C(CSc1n[nH]c(-c2cccnc2)n1)Nc1ccc(Br)cc1 | inconclusive: 31.6 µM [activator, single point] | 
